Measured values reported in publication doi:10.1101/163998.

Chains of the proteins cited; added tags and fusions are not shown.
UniProt Q13568: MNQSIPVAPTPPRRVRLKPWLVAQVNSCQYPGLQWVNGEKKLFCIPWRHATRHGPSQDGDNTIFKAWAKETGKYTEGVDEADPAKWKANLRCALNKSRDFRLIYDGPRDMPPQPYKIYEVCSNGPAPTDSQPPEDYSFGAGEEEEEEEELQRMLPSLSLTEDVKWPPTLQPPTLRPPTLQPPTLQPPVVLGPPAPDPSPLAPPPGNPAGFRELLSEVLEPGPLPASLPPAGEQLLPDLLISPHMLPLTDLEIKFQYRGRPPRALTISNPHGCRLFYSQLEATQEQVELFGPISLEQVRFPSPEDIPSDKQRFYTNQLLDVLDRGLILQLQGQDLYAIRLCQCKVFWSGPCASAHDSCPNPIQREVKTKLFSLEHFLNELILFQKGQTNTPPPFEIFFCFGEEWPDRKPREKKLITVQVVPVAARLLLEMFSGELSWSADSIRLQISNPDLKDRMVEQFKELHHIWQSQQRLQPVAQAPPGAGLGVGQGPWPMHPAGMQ
UniProt Q12905: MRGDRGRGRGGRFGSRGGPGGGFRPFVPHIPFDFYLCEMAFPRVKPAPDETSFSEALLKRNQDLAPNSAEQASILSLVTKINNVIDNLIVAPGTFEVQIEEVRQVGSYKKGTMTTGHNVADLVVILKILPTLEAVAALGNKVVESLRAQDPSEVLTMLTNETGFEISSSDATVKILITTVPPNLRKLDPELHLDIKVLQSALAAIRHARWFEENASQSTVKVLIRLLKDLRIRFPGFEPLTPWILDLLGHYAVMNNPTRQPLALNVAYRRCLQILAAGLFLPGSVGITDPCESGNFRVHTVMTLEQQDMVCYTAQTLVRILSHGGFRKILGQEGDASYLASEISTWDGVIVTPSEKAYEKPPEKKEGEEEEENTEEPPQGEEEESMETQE

Molecular target: IRF5 immunoprecipitated for mass spectrometry (UniProt Q13568)
Assay: affinity purification with mass spectrometry

In the case of “Interleukin Enhancer Binding Factor 2 (ILF2) (from UniProt Q12905 1-390)”, the binding is reported as “binds”.

No constants are given. Whether binding was seen depends on the method and setting. Binding seen in cells or lysates may run through a third protein. Here binding means that the protein was enriched with, or labelled near, the bait; the list need not be complete.
